# Measurements from patent US11008570B2, “3′ end caps for RNAi agents for use in RNA interference” (Novartis AG, priority 2013, dated 2021).
# For at least one compound, name, drawing or mass did not settle the structure.
# Test system: FVII (Factor VII), mF7-III target gene
# Assay: RNA interference against FVII by 3′-capped siRNAs (FIG. 2)
# Design: species or system mouse
# Conditions: 19-mer blunt-ended mF7-III siRNA, A12S17
compound,measurement,value
C[C@H](CCC(=O)O)[C@H]1CC[C@H]2[C@@H]3CC[C@@H]4C[C@H](O)CC[C@]4(C)[C@H]3CC[C@]12C [Lithocholic acid],ability of the RNAi agent to perform RNA interference (FIG. 2),allow the RNAi agent to perform RNA interference
